In PMC8430508:
No constants are given. Whether binding was seen depends on the method and setting. Binding seen in cells or lysates may run through a third protein. Some results given as binding are weak or reduced against the parent protein; the word gives no strength.

Chains of the proteins cited; added tags and fusions are not shown.
UniProt P08238: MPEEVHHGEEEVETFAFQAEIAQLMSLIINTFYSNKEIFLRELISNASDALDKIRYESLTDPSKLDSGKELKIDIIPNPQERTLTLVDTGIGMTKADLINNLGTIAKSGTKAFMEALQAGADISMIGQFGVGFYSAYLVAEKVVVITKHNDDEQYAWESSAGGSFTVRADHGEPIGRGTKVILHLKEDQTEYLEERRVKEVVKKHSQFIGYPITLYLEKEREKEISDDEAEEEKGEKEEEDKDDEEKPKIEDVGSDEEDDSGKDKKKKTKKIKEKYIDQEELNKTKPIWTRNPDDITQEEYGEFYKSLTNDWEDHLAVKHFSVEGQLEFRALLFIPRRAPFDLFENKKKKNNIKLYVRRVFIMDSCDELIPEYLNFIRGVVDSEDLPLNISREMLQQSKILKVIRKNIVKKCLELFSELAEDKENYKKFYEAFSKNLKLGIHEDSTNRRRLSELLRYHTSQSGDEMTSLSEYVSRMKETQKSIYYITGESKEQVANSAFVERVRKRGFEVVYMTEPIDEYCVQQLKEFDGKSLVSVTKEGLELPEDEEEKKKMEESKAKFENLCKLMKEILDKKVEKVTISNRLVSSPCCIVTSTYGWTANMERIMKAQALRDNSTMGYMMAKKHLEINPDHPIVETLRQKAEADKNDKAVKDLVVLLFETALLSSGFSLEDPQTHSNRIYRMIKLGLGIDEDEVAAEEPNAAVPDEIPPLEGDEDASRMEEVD

Molecular target: T1, cytosolic domain of human TOM70 (amino acids 111-608), wild type (human) (UniProt O94826)
T1 sequence: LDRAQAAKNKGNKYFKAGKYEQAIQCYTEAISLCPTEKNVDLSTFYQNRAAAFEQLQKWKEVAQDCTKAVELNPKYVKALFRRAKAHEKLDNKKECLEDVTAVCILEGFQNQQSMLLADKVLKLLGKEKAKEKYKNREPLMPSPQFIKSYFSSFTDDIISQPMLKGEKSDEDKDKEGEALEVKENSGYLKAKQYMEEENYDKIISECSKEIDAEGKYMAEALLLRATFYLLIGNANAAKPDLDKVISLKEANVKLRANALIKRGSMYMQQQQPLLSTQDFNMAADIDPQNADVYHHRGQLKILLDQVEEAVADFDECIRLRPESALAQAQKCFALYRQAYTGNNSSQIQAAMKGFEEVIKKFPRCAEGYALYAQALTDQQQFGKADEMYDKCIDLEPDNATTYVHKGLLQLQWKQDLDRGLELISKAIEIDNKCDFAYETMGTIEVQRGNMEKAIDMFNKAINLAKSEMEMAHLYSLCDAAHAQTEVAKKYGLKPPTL
Assay: pull-down; […]; 7% ([…]; 40 min, 30 °C; […], pH 7.2; […]; only the target purified

How did the binding turn out when “human Hsp90 (Hsp90-beta), full length, radiolabeled, synthesized in reticulocyte lysate (from UniProt P08238 1-724)” was run?
Its binding is “binds”.
